Strings that start with PEPTIDE1 are HELM notation: dots part the residues, brackets hold end groups and non-standard residues.
Experiment: general procedure: Fmoc solid-phase peptide synthesis; Fmoc-Lys(Boc)-[(4-(hydroxymethyl)phenoxyacetyl)-resin] (ABI 401425; 0.5 mmol/g) or Rink Amide AM resin (Novabiochem); FastMoc MonPrevPk programs; PyBOP/HOBt/DIEA for manual acylations
[1] = whole synthesis, l=200-300 nm, scale of the general procedure 0.1 mmol or 0.25 mmol

With “PEPTIDE1{C.R.Q.[Ile_bopen].K.[Ile_bopen].W.F.Q.N.R.R.M.K.W.K.K}|CHEM1{[CH2CO-4-Podo]}$PEPTIDE1,CHEM1,1:R3-1:R1$$$V2.0” the conjugation yield (conjugation step) was 59% and the “final HPLC purity” value (conjugation step, analytical RP-HPLC, Vydac 218TP54) was “purity>97%”.

With “[H-Glu-Gly-bAla]4-Lys2-Lys-bAla-Arg-Gln-Ile-Lys-Ile-Trp-Phe-Gln-Asn-Arg-Arg-Met-Lys-Trp-Lys-Lys-OH” the “crude HPLC purity” value [1] was >89%.

For “{[4[N-(2,4-Diamino-6-pteridinyl-methyl)-N-methylamino]benzoyl]-Glu-Gly-βAla}4-Lys2-Lys-βAla-Arg-Gln-Ile-Lys-Ile-Trp-Phe-Gln-Asn-Arg-Arg-Met-Lys-Trp-Lys-Lys-OH”, the “final HPLC purity” value (whole synthesis, 200-300 nm, scale of the general procedure 0.1 mmol or 0.25 mmol) was “purity>99%”.

With “{[4[N-(2,4-diamino-6-pteridinyl-methyl)-N-methylamino]benzoyl]-Glu-Gly-bAla}4-Lys2-Lys-bAla-Arg-Gln-Ile-Lys-Ile-Trp-Phe-Gln-Asn-Arg-Arg-Met-Lys-Trp-Lys-Lys-OH” the “final HPLC purity” value [1] was “purity>99%” and the crude mass (whole synthesis, scale 0.025 mmol) was 61 mg.

Source: US6992169B2 (Cyclacel Limited, priority 1998, dated 2006)
